PubChem BioAssay AID743454 – Peter MacCallum Cancer Centre, 2014

Screen: 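Knock-downs lowering viability or raising caspase 3/7 activity in vorinostat-treated resistant cells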 (primary screen)
System: human HCT116-VR colon cancer cells, selected for vorinostat resistance
Knock-down reagent: siRNA pool against human genes, 40 nM siRNA pool
Duration: vorinostat for 24 h, read-out about 72 h after transfection
Conditions: vorinostat at 2.5 µM final
Measured: 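Cell viability by CellTiter-Fluor and caspase 3/7 activity by luminescence, each scaled to mock wells per plate, duplicates averaged, then robust z-scored over all plates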
Direction: viability robust z-score: higher = more viable cells than screen typical; caspase robust z-score: higher = more caspase 3/7 activity than screen typical
Rule for the call: 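a knock-down is a hit when classed RV1 or RV2 for lowered viability, or CA1 or CA2 for caspase activation; those lethal without drug were dropped; hits were retested singly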
In all, the deposit lists about 18,000 reagents; shown is a random part of them. In the full data, 450 (2.5%) were called active. 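Single biological run; no consistent viability z cut-off exists, so the class columns, not z-scores, define the calls.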 Entries without a mark were called inactive. Reagent sequences are not shown.

Gene	viability hit class	caspase hit class	viability robust z-score	caspase robust z-score
CEP162	no change	no change	-0.7	-0.5
CAVIN1	no change	no change	0.93	-0.47
CAMK1G	no change	no change	0.38	0.48
LRRC45	no change	no change	-2.3	-0.48
AFG3L2	no change	no change	-1.64	0.7
KCNA3	no change	no change	-0.78	3.49
ZNF536	no change	no change	0.36	-0.09
SUV39H2	no change	no change	-2.38	2.89
FASTK	no change	no change	0.55	-0.16
BHLHE41	no change	no change	1.12	-0.59
RUNX3	no change	no change	0.38	-0.76
JOSD2	no change	no change	0.74	0.22
ING1	no change	no change	0.53	3.62
HDAC1	no change	no change	0.6	0.57
HSPBAP1	no change	no change	0.12	-1.03
CCDC61	no change	no change	0.31	4.28
TSN	no change	no change	1.05	-0.54
SPHAR (retired record)	no change	no change	1.49	-0.7
BEND5	no change	no change	-0.25	-0.68
AFAP1L2	no change	no change	0.46	-0.48
SRSF1	no change	no change	-1.27	-0.68
CBFA2T2	no change	no change	-0.22	-0.48
NOP58	RV2 (reduced viability) (active)	no change	-3.37	-0.44
MRI1	no change	no change	0.48	-0.88
BTBD7	no change	no change	-0.68	-1.17
RRP12	no change	no change	-1.83	0.48
DTX3	no change	no change	-1.19	4.53
KCNF1	no change	no change	-1.44	2.17
SEMA3E	no change	no change	1.6	-0.67
SBSN	no change	no change	-0.84	0.72
ADSL	no change	no change	1.53	-0.02
CPAP	no change	no change	-0.77	-0.14
PBDC1	no change	no change	0.82	0
GADD45B	no change	no change	0	0.42
FBXO34	no change	no change	0.15	1.84
GOLPH3	no change	no change	0.42	-0.4
PRXL2B	no change	no change	-0.82	0.36
ZNF384	no change	no change	0.15	-0.27
PSMF1	no change	no change	-0.45	2.08
GNB4	no change	no change	-0.12	-0.92
CLDN10	no change	no change	1.6	0.33
GRIN2D	no change	no change	-0.31	-0.58
GHRL	no change	no change	-0.26	1.53
OR9A4	no change	no change	-0.92	0.75
ARL16	no change	no change	-0.6	3.33
TNFSF18	no change	no change	0.88	0.22
ECT2L	no change	no change	0.05	-1.29
IRF7	no change	no change	0.15	0.48
DNM1	no change	no change	-0.28	1.44
ZNF787	no change	no change	-0.69	2.59
ARHGDIB	no change	no change	1.32	-0.43
SCML2	no change	no change	-0.5	1.19
TRIM62	no change	no change	0.46	0.28
MTCH1	no change	no change	0.12	-0.42
BAX	no change	no change	-0.16	-0.57
PYY	no change	no change	-1.64	1.23
PRPF18	no change	no change	-0.76	-0.74
CTNNBIP1	no change	no change	0.14	0.91
DACH2	no change	no change	-0.48	-0.26
CHPF	no change	no change	0.98	0.02
IL13	no change	no change	-0.05	2.15
ENTREP1	no change	no change	-0.7	-0.4
PIK3CG	no change	no change	0.3	1.44
NUSAP1	no change	no change	0	-0.65
SLC30A4	no change	no change	0.55	-0.46
P3H1	no change	no change	-2.24	-0.9
SLC4A11	no change	no change	1.36	-1.16
TM2D1	no change	no change	1.67	-0.16
SNHG29	no change	no change	-0.88	2.5
SMARCD1	no change	no change	-1.19	0.63
PRSS22	no change	no change	-1.07	1.3
EGR3	no change	no change	0.4	0.57
ADAMTSL2	no change	no change	0.18	-0.81
